Laboratory results reported in the supplement of paper PMC3334620.
The full ranking holds about 33,000 sequences; the median of “E-score (-0.5 to 0.5)” is about -0.0034, and the highest 2% start at about 0.25. The list shows a part of the results.

target: T1, Yap3 (UniProt P38749); assay: PBM E-score (8-mer binding enrichment) (E-score (-0.5 to 0.5)); higher = stronger / more preferred TF binding; conditions: protein concentration: 100 nM; construct: GST-full length
T1 sequence: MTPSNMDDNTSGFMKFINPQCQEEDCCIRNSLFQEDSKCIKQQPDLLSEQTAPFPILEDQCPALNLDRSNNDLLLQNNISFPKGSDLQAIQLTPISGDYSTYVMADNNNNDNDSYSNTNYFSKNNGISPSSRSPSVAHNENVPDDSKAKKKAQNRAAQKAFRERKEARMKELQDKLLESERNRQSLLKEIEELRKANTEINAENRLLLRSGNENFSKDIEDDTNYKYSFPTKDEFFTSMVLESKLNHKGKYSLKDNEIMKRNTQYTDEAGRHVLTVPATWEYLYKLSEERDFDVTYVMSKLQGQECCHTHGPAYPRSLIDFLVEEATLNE
Outline: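 Universal all-10-mer Agilent arrays, fresh or stripped once, were converted to double-stranded form by primer extension. GST-tagged yeast transcription factors from PURExpress in vitro transcription/translation, full-length or DNA-binding domain only, were applied at about 100-200 nM and detected with fluorescent anti-GST. After masliner normalisation, the Universal PBM Analysis Suite scored each ungapped eight-base word together with its reverse complement by E-score.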

Sequence | PBM E-score
CGGTCTTA | -0.196
AGTCGGTC | -0.125
GAACTTAC | 0.0611
GGTGGCGA | -0.0578
CACATACC | -0.121
CGGACAAA | 0.0955
GTCACGAA | 0.0553
AGCTTCTC | -0.056
CTGGACGA | -0.189
CGTGGGCC | -0.127
AGCAAAAT | 0.0797
AAAACGGC | 0.0585
CGGAACAA | 0.241
TTCTTCAA | 0.0985
AATCAGCC | -0.011
CTGTTGTC | 0.102
TAAGATAA | 0.0659
CTTTTACC | 0.197
CTCTGGCA | -0.0564
CGTCTTAA | -0.0261
GTTTATGA | 0.167
ATCTTGAA | 0.0306
ACAGGGTC | -0.15
AGGGTACA | 0.0205
ATACCTGG | -0.169

Sequence | PBM E-score
CGATGTGA | 0.0929
CGCTTTTC | -0.0501
GACAAGAC | -0.0835
TCCAAACA | -0.0104
AACGTTGT | 0.104
CGAAGACG | -0.174
CAGTGAGA | -0.0268
AGAAAGAT | 0.164
CATACTTC | -0.0826
CTTCCTTC | -0.204
TGCGGCAA | 0.00329
GTAACCAC | -0.0746
CGCAGGAG | -0.101
AATAGGGG | 0.115
GCCCACAC | -0.0756
AAGGTGTC | -0.101
ACGGTAGT | 0.0239
ATTAGGGA | 0.00493
AAACGCTG | -0.0785
CTATGCTC | -0.0894
CGAATACA | 0.0361
ATATCATG | 0.101
CCTTCTAA | -0.0389
ATGTGCAG | -0.188
CCTAGGGC | -0.24

Sequence | PBM E-score
CATGAATG | 0.0841
ATTATTAC | 0.269
CCAGCGGG | -0.215
AAAACACG | 0.22
ATATGTAG | 0.0736
GCTGGCTA | -0.196
GCAGTAAA | 0.0959
AGTTTTCC | 0.0722
AGCTTAAC | -0.0329
ATGCAGAA | 0.154
ACTCGCAT | 0.117
CTTGGGGA | 0.0229
CACATGCC | 0.0554
GTTAGATA | 0.164
CCGTAAGG | -0.277
ACTAGGCC | -0.223
TGACAACA | 0.0887
GAGCAGAC | -0.0206
CACGCGAG | 0.0558
AGTAAAGG | 0.108
AGAGGTGG | -0.00498
GAACCTCC | -0.15
CAGCTCCC | -0.367
GGTGACGA | 0.0762
AATATCTA | 0.0725

Sequence | PBM E-score
ATTAAACA | 0.0847
ATTAGGCG | 0.0783
AATAATCT | 0.31
TGACCAAA | 0.0457
ATGAACGA | 0.0136
ACTGAATG | 0.0659
CGCCTACG | -0.0505
GGAACCTA | 0.014
AAAGACCA | -0.153
TTCAGGAA | -0.0518
CTTGCCAA | -0.0286
CACCTCAA | -0.0307
CCCTAGGG | -0.322
ATGACATC | 0.143
ACGACTAA | -0.0256
CTAAACAC | 0.0338
GCCAGCAA | -0.146
CCCGTTGA | -0.0597
GGCGGACC | -0.308
TGGATACA | 0.0298
CATCGGGC | -0.243
AAAGTAAG | -0.0491
ACGACTAT | 0.114
CTCATCCC | -0.199
GGCGGGAA | -0.0118

Sequence | PBM E-score
ACCGCCCT | -0.117
CAGATTGC | 0.0178
AGGGATCG | -0.251
CAAGGCCA | -0.0166
CGTGAGGC | -0.0191
CACCTCAG | -0.102
CATCGATA | 0.237
GTGGGAAC | -0.0463
CAGCTTCC | -0.14
GGCGCCAC | -0.177
ACACCCCC | -0.289
CGCCGACG | -0.0697
GATTCCGC | -0.0196
TCTAGGCA | -0.102
CTGTCTAA | -0.014
CACGGTCG | -0.221
TCCAAGCA | 0.0609
GCTGGTCC | -0.102
AATATGTC | 0.111
ACTTGTAA | 0.0694
AAATAAGC | 0.12
CGCGAGGA | 0.00311
GGCTTTTA | -0.197
ACGGTGGG | -0.0405
ATCGTAAC | 0.0721

Sequence | PBM E-score
CGGTACCG | 0.0451
ATTTAGTC | 0.167
GCCAACTA | -0.181
CCATTCGC | -0.0811
TGTCGTAA | 0.0512
CAGAGGAA | -0.0763
CCCGTGTC | -0.228
CGAAAAGC | -0.107
AATCGCGA | 0.255
TATGTCAA | 0.228
CCGATCCG | -0.0465
AGACGGCA | -0.0106
ATGGCGCC | -0.199
AAGTCGCA | 0.0681
CCATAAGC | -0.0492
AAGCGGGC | -0.158
ATACCTCG | 0.125
CCTATCGC | -0.197
AAGCCCGC | -0.173
AGCCATCG | -0.0643
GACTGATC | -0.0446
GATTGACC | -0.0938
ACGAGCCA | 0.00329
AGTACCGA | 0.0518
AGAGCGCC | -0.0699

Sequence | PBM E-score
CCACAGGC | -0.379
GCCACAAC | 0.151
CCTGTGCA | -0.125
CAGACCAG | -0.0471
CCAAAGAA | 0.124
AGACATTC | -0.0855
AGGGTCTG | -0.248
GATTGACA | 0.0145
AGTCTAAT | 0.0429
CCGGTAAA | 0.0746
AAGAGAGC | -0.218
CAGCACTG | -0.139
GGCAAGGA | -0.0794
CACTGTAG | 0.0623
ACTCGACC | -0.198
ATAGATAA | 0.221
AACCGAGG | -0.162
CGTTCCTC | -0.138
CACTGTTA | -0.016
CATCAGTA | 0.0801
AGCTGAAT | 0.152
CCTAACGC | -0.0964
CATCATGA | -0.014
ACGACTCC | -0.0211
AACCGCAG | -0.157

Sequence | PBM E-score
CATTGTAA | 0.172
ACCGCTGC | -0.215
ATAACTTA | 0.147
CATTAACA | 0.13
CGACTGAG | -0.0972
AGTGGAAT | 0.0743
CCCCGCCG | -0.279
GAGTTGTA | 0.0824
ATCTGCCA | 0.036
CTCGCTTA | 0.177
CCACGCAC | 0.0214
ATATGGTC | 0.0553
AAATTGTT | 0.183
ATAACCTG | -0.0425
ATGATTGA | 0.107
ACAGCTGC | 0.0437
CTGACCTA | -0.12
GGAGGGCC | -0.277
ACCACACA | 0.175
CAATGGCA | 0.128
AGCTATGC | -0.154
GCCGAACC | -0.0781
AACAATTA | 0.323
GGTGGGAC | -0.282
AATTCTGT | 0.0491

Sequence | PBM E-score
AACTATCC | -0.036
CTACTTAC | 0.00279
CATCTGAC | -0.159
ACTATTTA | 0.212
ATGGCGCA | 0.137
CGATCGAA | 0.108
AATCCGCG | -0.00263
CCAGTACC | -0.00753
GAGTAGTA | 0.0528
CCTACCCG | -0.174
CACATAGC | 0.00504
AGCCGGGG | -0.343
GCGTTTCA | 0.0386
CCCTTGGA | -0.0842
CCAGCGTA | -0.0748
GGTGTCCA | 0.0644
ACTGAAAG | 0.114
CTACGCAC | -0.0999
ATTACACC | 0.215
